Screen size: about 580,000 compounds; about 6,100 (1.1%) were called active. The shares of active, inactive and inconclusive entries below differ from those in the screen. The call rests on the fitted dose curve; in most records, active means well fitted inhibition curve with a large enough effect; inconclusive means small, poorly fitted or top-dose-only effect, or another doubt; inactive means no such curve, though single readings can be large or run the other way. A potency beside an inconclusive call is a rough fit, not a confirmed value.
target: Polyunsaturated fatty acid lipoxygenase ALOX12 (Homo sapiens) (UniProt P18054); test: Primary qHTS assay for inhibitors of human arachidonate 12S-lipoxygenase (ALOX12): Round 2; details: purified 12hLO, xylenol orange hydroperoxide absorbance; activity change, negative = inhibition: at 108 µM (top of the series) unless noted
Procedure, shortened: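 Purified human 12hLO (150 nM final) in 25 mM Hepes, 0.01% Triton X-100, pH 7.0 was preincubated 15 min at room temperature with compound. Then 40 uM arachidonic acid was added, 30 min. Hydroperoxide was read by Fe-XO absorbance ratio 573/405 nm.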
On the % scale 0 is the no-effect control and ±100 the full control effect; potency means the concentration at half of the fitted maximal effect.

By UniProt entry, the sequences of proteins in these tests, tags left out. Where a name states a change or a piece, a line headed by the entry shows the natural chain unless it says otherwise.
UniProt P18054: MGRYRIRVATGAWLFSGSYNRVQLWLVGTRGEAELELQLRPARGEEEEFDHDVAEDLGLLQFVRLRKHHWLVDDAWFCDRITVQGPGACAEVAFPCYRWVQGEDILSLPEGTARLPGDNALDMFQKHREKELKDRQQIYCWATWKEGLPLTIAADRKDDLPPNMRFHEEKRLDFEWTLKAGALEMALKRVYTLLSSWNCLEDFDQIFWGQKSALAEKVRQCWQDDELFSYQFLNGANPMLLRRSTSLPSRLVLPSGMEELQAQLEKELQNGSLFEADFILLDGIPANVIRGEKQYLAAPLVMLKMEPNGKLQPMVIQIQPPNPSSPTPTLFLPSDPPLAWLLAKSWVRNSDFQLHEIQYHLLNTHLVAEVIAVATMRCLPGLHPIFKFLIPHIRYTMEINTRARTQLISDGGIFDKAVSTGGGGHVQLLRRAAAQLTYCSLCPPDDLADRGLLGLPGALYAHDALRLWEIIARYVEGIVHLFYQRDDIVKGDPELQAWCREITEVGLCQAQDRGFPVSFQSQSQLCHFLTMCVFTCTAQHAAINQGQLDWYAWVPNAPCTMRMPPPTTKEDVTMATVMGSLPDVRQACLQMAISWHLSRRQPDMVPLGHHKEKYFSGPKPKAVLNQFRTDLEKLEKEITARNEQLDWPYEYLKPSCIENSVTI

SMILES	Potency	activity change, negative = inhibition
Cc1ccc(NC(=O)CSc2ncccn2)c([N+](=O)[O-])c1	inconclusive: 3.16 µM [inhibitor, full curve, poor fit]	
CC(C)c1ccc(-c2nn[nH]n2)cc1	inconclusive: 35.5 µM [inhibitor, single point]	
O=c1cc(-c2ccc(O)cc2)oc2c([C@@H]3O[C@H](CO)[C@@H](O)[C@H](O)[C@H]3O)c(O)c([C@@H]3O[C@H](CO)[C@@H](O)[C@H](O)[C@H]3O)c(O)c12	inconclusive: 39.8 µM [inhibitor, partial curve, poor fit]	
Cc1cccnc1NC(=O)c1ccc(C2SCCCS2)cc1		inactive: 3.33%
CC(=O)Nc1sc2c(c1SC#N)CCCC2	inconclusive: 5.62 µM [inhibitor, full curve, poor fit]	
CN(C)c1cc[n+](CC(=O)c2ccc(OC(F)F)cc2)cc1		inactive: 18.7%
COCCCNC(=O)C1CCN(C(=O)c2nnn3c2COC(c2ccc(C)cc2)C3)CC1 (stereo not given)		inactive: 26.1%
Cc1ccccc1N1CCN(C(=O)c2ccccc2NC(=O)C2CC=CCC2C(=O)O)CC1 (stereo not given)	inconclusive: 31.6 µM [inhibitor, partial curve, poor fit]	
CC1CC(C)CN(CCCOc2ccccc2[N+](=O)[O-])C1 (stereo not given)	inconclusive: 5.62 µM [inhibitor, full curve, poor fit]	
O=[N+]([O-])c1ccc(N2N=C(c3ccccc3)CC2c2ccccc2O)cc1 (stereo not given)	active: 25.1 µM	
CC1=CC=C(C(C)C)CC1	inconclusive: 224 µM [inhibitor, single point]	
COC(=O)c1ccccc1NC(=O)c1noc2c1CCC2	inconclusive: 50.1 µM [inhibitor, partial curve]	
O=c1c2ccccc2nc(/C=C/c2cccc3ccccc23)n1-c1ccc(F)cc1F		inconclusive: -30.2% [inhibitor]
CCNC(=S)N(CCO)Cc1cc2cc3c(cc2[nH]c1=O)OCO3	inconclusive: 31.6 µM [inhibitor, single point]	
CCCc1cc(=O)oc2cc(OCC(N)=O)ccc12		inactive: -5.44%
Cc1ccc(C(C)C)c(OCc2ccc(C(=O)N/N=C/c3cccc(O)c3O)cc2)c1	inconclusive: 50.1 µM [inhibitor, partial curve]	
CCc1nc2c(c(-c3ccc(O)cc3)n1)CCN(Cc1cncs1)CC2		inactive: -7.07%
Cc1nc(SCc2ccccc2)[nH]c(=O)c1CC(=O)OCC(C)C	inconclusive: 35.5 µM [inhibitor, full curve, poor fit]	
CCOc1ccc(NC(=S)NC(=O)c2cccnc2)c([N+](=O)[O-])c1	inconclusive: 44.7 µM [inhibitor, partial curve, poor fit]	
Cc1ccc(SCC(=O)c2ccc3c(c2)OCCO3)c(C)c1	inconclusive: 39.8 µM [inhibitor, partial curve, poor fit]	
CN1CCN(C(=O)C[C@@H]2CCNC[C@@H]2Cc2cc(-c3ccc(C(C)(C)C)cc3)on2)CC1	inconclusive: 39.8 µM [inhibitor, single point]	
CNc1c(NS(=O)(=O)c2ccc3c(c2)CCCC3)c(=O)oc2ccccc12	inconclusive: 39.8 µM [inhibitor, full curve, poor fit]	

SMILES	Potency	activity change, negative = inhibition
COC(=O)CN(Cc1ccccc1)Cc1ccco1	inconclusive: 28.2 µM [inhibitor, partial curve, poor fit]	
CCN(CC)CCCOC(=O)C(c1ccccc1)c1ccccc1	inconclusive: 39.8 µM [inhibitor, partial curve, poor fit]	
CCCCn1cnc2c1c(=O)n(CC(=O)Nc1ccc(F)c(Cl)c1)c(=O)n2CC(C)C	inconclusive: 44.7 µM [inhibitor, partial curve, poor fit]	
CC(C)N(CC#CCC1(O)c2ccccc2-c2ccccc21)CCO	active: 7.94 µM	
Cc1cccc(N(C(=O)c2snc(C(N)=O)c2N)C(C(=O)NCC2CCCO2)c2cccs2)c1 (stereo not given)		inactive: -12.4%
O=C1CCCC(O)=C1N=Nc1ccc(S(=O)(=O)N2CCOCC2)cc1	inconclusive: 50.1 µM [inhibitor, partial curve, poor fit]	
COc1cc(-c2cc(OC)c3c(C)oc(C)c3c(=O)c2)ccc1OC(=O)c1ccc(C)cc1	inconclusive: 112 µM [inhibitor, partial curve, poor fit]	
CC(C(=O)N(C)C1CCS(=O)(=O)C1)N1C(=O)/C(=C/c2ccc(F)cc2)SC1=S (stereo not given)	inconclusive: 44.7 µM [inhibitor, partial curve, poor fit]	
O=c1c2ccccc2n2c(=S)[nH]nc2n1-c1ccccc1	inconclusive: 39.8 µM [inhibitor, partial curve, poor fit]	
CC1CCC/C(=C\Nc2ccc(O)cc2)C1=O (stereo not given)	inconclusive: 31.6 µM [inhibitor, partial curve, poor fit]	
CCn1c(C)cc2c(c1=O)C(c1ccccc1Br)C(C#N)=C(N)O2 (stereo not given)	inconclusive: 56.2 µM [inhibitor, partial curve, poor fit]	
c1csc(CNCC2CCCCC2)c1		inactive: -17.3%
O=C(OCc1ccc(O)cc1)c1c(-c2ccsc2)oc2ccc(N3CCOCC3)cc12	inconclusive: 89.1 µM [inhibitor, partial curve, poor fit]	
CC(C)(C)n1nnnc1C1CC2(CCOCC2)C(=O)N1CCc1nc2ccccc2[nH]1 (stereo not given)		inactive: 95.1%
COc1ccccc1C(=O)NCCSCc1c(F)cccc1Cl		inactive: 11.4%
Cc1nc(N(C)C2CCCCC2)c2nnn(Cc3ccc(F)cc3)c2n1	inconclusive: 89.1 µM [inhibitor, single point]	
Cc1ccccc1CSCC(=O)Nc1sccc1C#N	inconclusive: 35.5 µM [inhibitor, partial curve, poor fit]	
CNC(C)c1ccncc1 (stereo not given)	inconclusive: 0.461 µM [inhibitor, full curve]	
O=C(CSc1n[nH]c(-c2ccccc2Cl)n1)NCCCc1ccccc1		inactive: -12.2%
COc1ccc(C(=O)/C=C/c2ccccc2Cl)cc1CC(=O)O	inconclusive: 31.6 µM [inhibitor, partial curve, poor fit]	
O=[N+]([O-])c1ccc2nc(C(F)(F)F)[nH]c2c1	inconclusive: 31.6 µM [inhibitor, single point]	
O=C1C(=O)N(CCOCCO)C(c2ccccn2)/C1=C(\O)c1ccccc1 (stereo not given)	inconclusive: 5.62 µM [inhibitor, partial curve, poor fit]	

SMILES	Potency	activity change, negative = inhibition
OC1(c2ccc(Cl)cc2)CCN(Cc2c[nH]c3ccccc23)CC1	inconclusive: 112 µM [inhibitor, partial curve, poor fit]	
Cc1ccc(NC(=O)Cn2ccn3nc(-c4ccc(F)cc4)c(CO)c3c2=O)c(C)c1	inconclusive: 79.4 µM [inhibitor, partial curve]	
O=C(NN=C1CCCC1)c1cc(Cl)cc(Cl)c1O	inconclusive: 50.1 µM [inhibitor, partial curve, poor fit]	
COc1ccccc1-n1c(=S)sc2c(=O)n(Cc3ccco3)c(SC)nc21		inactive: 9.18%
O=C(CSCC(O)c1ccccc1)c1c[nH]c2ccccc12 (stereo not given)	inconclusive: 0.1 µM [inhibitor, full curve, poor fit]	
Cc1ccc(-c2cn3c(n2)sc2cc(C(=O)NCCCN4CCCCCC4)ccc23)cc1	inconclusive: 35.5 µM [inhibitor, partial curve, poor fit]	
CCOC(=O)C1(Cc2cccc(Cl)c2)CCCN(C(=O)CCSC)C1 (stereo not given)	inconclusive: 70.8 µM [inhibitor, single point]	
CC(C)c1nc(CCn2cc(-c3cncnc3)nn2)cs1	inconclusive: 3.55 µM [inhibitor, full curve]	
COc1cccc(N2C(=O)NC(=NC3CCCC3)C23CCN(Cc2cccn2C)C3)c1 (stereo not given)	inconclusive: 39.8 µM [inhibitor, full curve, poor fit]	
O=C(O)CCCc1ccc2ccc3cccc4ccc1c2c34	inconclusive: 1.78 µM [inhibitor, partial curve, poor fit]	
CCOC(=O)c1ccc(CSc2nncn2N)o1	inconclusive: 89.1 µM [inhibitor, partial curve, poor fit]	
CCCN(CCC)C(=O)c1cc2c(=O)n3cccc(C)c3nc2s1	inconclusive: 89.1 µM [inhibitor, partial curve, poor fit]	
Clc1cc2c(cc1Cn1nnc(-c3ccncc3)n1)OCO2		inactive: 4.47%
CC1(C(=O)O)CCN(S(=O)(=O)c2ccccc2)CC1	inconclusive: 5.62 µM [inhibitor, full curve, poor fit]	
COC(=O)c1ccc(C2c3[nH]c4ccccc4c3C[C@H]3C(=O)N(C)CC(=O)N23)cc1 (stereo not given in full)		inactive: -13%
Cc1ccc(C)c(S(=O)(=O)c2c(N)n(/N=C/c3ccco3)c3nc4ccccc4nc23)c1		inactive: -4.47%
CCCCc1nnc(SCc2ccc(OCC)cc2)n1N	inconclusive: 126 µM [inhibitor, partial curve, poor fit]	
C/C=C/CSc1nc2c(c(=O)n(C)c(=O)n2C)n1Cc1ccc(Cl)cc1		inactive: -22.7%
C=CCN=C1NC(CCc2ccccc2)C(C(=O)OC)=C(C)N1Cc1cccc(C(F)(F)F)c1 (stereo not given)	inconclusive: 79.4 µM [inhibitor, partial curve, poor fit]	
Cc1cccc(N=C2NN=C(c3c[nH]c(C(=O)N4CCCC4)c3)CS2)c1	inconclusive: 44.7 µM [inhibitor, partial curve, poor fit]	
CCc1ccc(Nc2n[n+](-c3ccccc3)c(-c3cc(OC)c(OC)cc3Br)s2)cc1	active: 39.8 µM	

Another view of part of the listing above:
Cc1nc(N(C)C2CCCCC2)c2nnn(Cc3ccc(F)cc3)c2n1
  Potency: inconclusive: 89.1 µM [inhibitor, single point]
Cc1ccccc1CSCC(=O)Nc1sccc1C#N
  Potency: inconclusive: 35.5 µM [inhibitor, partial curve, poor fit]
CNC(C)c1ccncc1 (stereo not given)
  Potency: inconclusive: 0.461 µM [inhibitor, full curve]
O=C(CSc1n[nH]c(-c2ccccc2Cl)n1)NCCCc1ccccc1
  activity change, negative = inhibition: inactive: -12.2%
